Measured values reported in patent publication US5308840A, “Substituted or unsubstituted benzhydryl heteroalkyl-substituted aminophenol compounds and pharmaceutical compositions thereof” (Green Cross Corporation, priority 1991, dated 1994).
Converted amounts (≈) assume the structure as drawn. For at least one compound, name, drawing or mass did not settle the structure.

System: lipoperoxide production in rat cerebral tissues
Assay: Inhibition of lipoperoxide production in rat cerebral tissues (TBA reaction in cerebral tissue homogenate)
Assay type: biochemical
Details: 37° C., 120 minutes, test concentrations 10, 1, 0.1, 0.01, 0.001 μg/ml, absorbance 535 nm, least square method
Description: Inhibition of lipoperoxide production in rat cerebral tissues
(1) Preparation of cerebral tissue homogenate
A rat was slaughtered with carbon dioxide, and immediately after blood sampling from the heart, brain was removed and weighed. A 5% (w/v) tissue homogenate was prepared by a homogenizer with PBS (pH 7.3). Homogenation was conducted two times for 15 seconds (scale 10) while cooling.
(2) Inhibition of lipoperoxide production in rat cerebral 4issues.
Each of the test drugs (50 μl, concentration 10, 1, 0.1, 0.01, 0.001 μg/ml) was placed in a polypropylene tube, to which was added cerebral tissue homogenate (1 ml), followed by incubation at 37° C. in a thermobath for 120 minutes. […] After 10 minutes' shaking extraction, it was centrifuged at 3000 rpm and at room temperature (low temperature causes change of absorbance) for 10 minutes. The absorbance of the butanol layer (upper layer) was measured at a wavelength of 535 nm. The difference between the absorbance of the control incubated at 37° C. […] (added with dimethylsulfoxide only) was taken as the amount of 100% lipoperoxide production, and the percent suppression of the drug was calculated from the following formula. [formula] wherein A is the difference of absorbance of 37° C. control and 2° C. control, and B is the difference of absorbance of a drug sample and 2° C. control. […]

Question: `Cc1ccc(O)c(NCCCN2CCC(C(O)(c3ccccc3)c3ccc(Cl)cc3)CC2)c1` (stereo not shown) [Compound 26, 2-[3-[4-(4-chlorophenyl)hydroxyphenylmethyl-1-piperidinyl]propyl]amino-4-methylphenol] was tested. Which IC50 did it give?
Answer: 0.04 µg/mL (≈ 0.086 µM)
